In patent US20190367625A1, “AMHRII-BINDING COMPOUNDS FOR PREVENTING OR TREATING CANCERS” (GAMAMABS PHARMA, priority 2017, published 2019):
Some entries share one result that the patent states for a list of compounds.

Tested on: HuPrime® HCC xenograft model LI1097
Assay: Efficacy study in HuPrime HCC xenograft model LI1097 (tumor volume, TGI, T/C, T-C)
Type: in vivo, BALB/c nude mice
Details: antibody 20 and 50 mg/kg, sorafenib 50 mg/kg
Text: To evaluate preclinically the in vivo efficacy of GamaMabss' anti-AMHR2 monoclonal antibody, named GM102 in the treatment of Huprime® HCC xenograft model LI1097 in Balb/C nude mice. The model LI1097 was selected after a screening for AMHR2 transcription processed by CrownBio, using RNAseq (transcriptome sequencing). Further, AMHR2 membranous protein expression of this model was confirmed by Institut Curie, France, using IHC.
• Strain: BALB/c Nude • Age: 7-8 weeks (Treatment starting) • Gender: female • Total #: 32 mice plus spare
• HuPrime® Liver cancer model L11097 derived from a HCC patient was selected for this efficacy study. This model reached 1000 mm^3 in 20-25 days post inoculation.
• Product identification: GamaMabs's Ab (3C23K) • Manufacturer: GamaMabs Pharma • Lot number: R18H2-LP01 • Batch: 04GAM140513API • Quantity needed: 255 mg based on animal BW of 25 g with 50% spare • Package and storage condition: [30 ml/tube], 30 ml, [2-8° C.] • Concentration: 10.1 g/L • Product identification: Sorafenib • Manufacturer: Melonepharma • Lot number: D1111A • Quantity needed: 300 mg based on animal BW of 25 g with 50% spare • Package and storage condition: 400 mg, [RT] […]
Tumor size were measured twice weekly in two dimensions using a caliper, and the volume is expressed in mm^3 using the formula: TV=0.5 a×b^2, where a and b are the long and short diameters of the tumor, respectively. […]

CNC(=O)c1cc(Oc2ccc(NC(=O)Nc3ccc(Cl)c(C(F)(F)F)c3)cc2)ccn1 [Sorafenib, reference compound]
time for which responses to treatment are maintained: at least 27 days
